For 2 substances, binding results are on record in paper PMC5681675.

Protein sequences, listed by entry. Tags and fused reporters are not part of them. Residues count along the entry.
UniProt O75140: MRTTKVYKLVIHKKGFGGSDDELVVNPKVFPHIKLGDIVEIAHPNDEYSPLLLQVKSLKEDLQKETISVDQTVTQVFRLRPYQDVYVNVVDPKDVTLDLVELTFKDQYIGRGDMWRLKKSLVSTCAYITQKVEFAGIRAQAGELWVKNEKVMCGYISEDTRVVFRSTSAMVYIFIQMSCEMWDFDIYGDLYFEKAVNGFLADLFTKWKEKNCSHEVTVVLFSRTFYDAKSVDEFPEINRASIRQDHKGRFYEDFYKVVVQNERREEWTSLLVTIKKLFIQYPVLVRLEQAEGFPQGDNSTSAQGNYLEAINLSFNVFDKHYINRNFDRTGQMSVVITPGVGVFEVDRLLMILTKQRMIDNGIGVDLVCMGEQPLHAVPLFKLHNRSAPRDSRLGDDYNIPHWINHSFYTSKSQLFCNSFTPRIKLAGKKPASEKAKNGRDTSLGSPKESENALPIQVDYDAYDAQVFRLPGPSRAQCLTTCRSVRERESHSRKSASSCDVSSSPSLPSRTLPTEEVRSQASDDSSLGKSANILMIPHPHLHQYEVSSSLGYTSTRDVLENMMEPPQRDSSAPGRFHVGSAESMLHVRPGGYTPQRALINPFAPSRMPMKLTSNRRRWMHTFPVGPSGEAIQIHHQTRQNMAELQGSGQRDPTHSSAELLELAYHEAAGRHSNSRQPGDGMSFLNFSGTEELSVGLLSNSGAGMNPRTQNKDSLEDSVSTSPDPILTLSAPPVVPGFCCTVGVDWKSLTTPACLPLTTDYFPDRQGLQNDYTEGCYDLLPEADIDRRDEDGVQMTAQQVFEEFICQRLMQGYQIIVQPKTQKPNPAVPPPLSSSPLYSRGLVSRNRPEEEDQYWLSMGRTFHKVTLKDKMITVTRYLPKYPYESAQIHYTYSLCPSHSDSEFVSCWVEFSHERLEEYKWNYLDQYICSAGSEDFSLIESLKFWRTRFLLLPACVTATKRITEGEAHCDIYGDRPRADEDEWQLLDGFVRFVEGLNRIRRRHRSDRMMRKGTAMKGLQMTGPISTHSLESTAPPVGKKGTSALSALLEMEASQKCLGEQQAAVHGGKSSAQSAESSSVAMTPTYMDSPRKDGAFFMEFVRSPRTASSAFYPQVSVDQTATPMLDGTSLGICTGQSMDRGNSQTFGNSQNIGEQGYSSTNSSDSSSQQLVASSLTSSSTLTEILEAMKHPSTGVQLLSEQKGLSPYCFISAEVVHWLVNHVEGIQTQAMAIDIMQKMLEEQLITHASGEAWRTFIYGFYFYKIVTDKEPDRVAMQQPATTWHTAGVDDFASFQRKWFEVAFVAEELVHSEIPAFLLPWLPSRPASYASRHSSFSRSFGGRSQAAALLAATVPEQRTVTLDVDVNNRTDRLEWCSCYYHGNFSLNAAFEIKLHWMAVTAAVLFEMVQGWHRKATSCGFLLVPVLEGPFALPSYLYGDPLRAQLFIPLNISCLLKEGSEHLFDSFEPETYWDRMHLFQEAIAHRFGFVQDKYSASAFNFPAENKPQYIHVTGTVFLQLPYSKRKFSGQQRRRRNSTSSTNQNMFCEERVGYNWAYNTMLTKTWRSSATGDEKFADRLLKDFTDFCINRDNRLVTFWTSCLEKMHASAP
UniProt O95831, residues 102-613: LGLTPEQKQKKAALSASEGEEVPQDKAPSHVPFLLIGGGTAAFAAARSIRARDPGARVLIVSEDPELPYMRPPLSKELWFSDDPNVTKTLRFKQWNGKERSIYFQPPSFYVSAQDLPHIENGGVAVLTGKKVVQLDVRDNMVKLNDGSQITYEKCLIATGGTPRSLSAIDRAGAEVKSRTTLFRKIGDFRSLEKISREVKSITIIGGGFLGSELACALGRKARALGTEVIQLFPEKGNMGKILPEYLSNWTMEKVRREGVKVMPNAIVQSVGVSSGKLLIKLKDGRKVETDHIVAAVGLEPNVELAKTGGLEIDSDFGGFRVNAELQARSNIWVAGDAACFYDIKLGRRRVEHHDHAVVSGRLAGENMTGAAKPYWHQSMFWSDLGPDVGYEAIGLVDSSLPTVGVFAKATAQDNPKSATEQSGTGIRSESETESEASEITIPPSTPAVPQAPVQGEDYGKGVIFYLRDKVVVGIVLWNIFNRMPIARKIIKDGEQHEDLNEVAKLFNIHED

No constants are given. Whether binding was seen depends on the method and setting. In cells and extracts the contact can be indirect. A yes stands for co-enrichment or nearness to the bait. Other partners may have been found. Tags and fused reporters may be left off the sequences shown.

Experiment [1] deals with T1, FLAG-NPRL2-GFP (human) (UniProt Q8WTW4).
T1 sequence: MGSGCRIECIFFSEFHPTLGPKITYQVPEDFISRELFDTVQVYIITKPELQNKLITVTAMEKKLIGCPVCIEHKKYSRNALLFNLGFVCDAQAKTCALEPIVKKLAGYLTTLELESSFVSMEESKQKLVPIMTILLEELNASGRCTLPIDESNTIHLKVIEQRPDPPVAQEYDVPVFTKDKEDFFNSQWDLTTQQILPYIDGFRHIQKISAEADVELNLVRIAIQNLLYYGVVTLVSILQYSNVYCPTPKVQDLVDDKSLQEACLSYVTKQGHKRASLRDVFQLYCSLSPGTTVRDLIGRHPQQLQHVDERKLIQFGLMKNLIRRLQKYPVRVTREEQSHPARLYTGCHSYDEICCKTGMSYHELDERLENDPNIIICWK
The experiment is described as follows: affinity purification with mass spectrometry; in-house polyclonal anti-GFP antibodies coupled to Dynabeads; clarified extracts of cryo-milled HEK293 cells stably expressing FLAG-NPRL2-GFP, NPRL3-GFP or GFP; 40 mM HEPES, pH 7.4, 2.5 mM MgCl2, 1% Triton X-100; three technical replicates; label-free quantification.

The target in experiment [2] is T2, NPRL3-GFP (UniProt Q12980).
T2 sequence: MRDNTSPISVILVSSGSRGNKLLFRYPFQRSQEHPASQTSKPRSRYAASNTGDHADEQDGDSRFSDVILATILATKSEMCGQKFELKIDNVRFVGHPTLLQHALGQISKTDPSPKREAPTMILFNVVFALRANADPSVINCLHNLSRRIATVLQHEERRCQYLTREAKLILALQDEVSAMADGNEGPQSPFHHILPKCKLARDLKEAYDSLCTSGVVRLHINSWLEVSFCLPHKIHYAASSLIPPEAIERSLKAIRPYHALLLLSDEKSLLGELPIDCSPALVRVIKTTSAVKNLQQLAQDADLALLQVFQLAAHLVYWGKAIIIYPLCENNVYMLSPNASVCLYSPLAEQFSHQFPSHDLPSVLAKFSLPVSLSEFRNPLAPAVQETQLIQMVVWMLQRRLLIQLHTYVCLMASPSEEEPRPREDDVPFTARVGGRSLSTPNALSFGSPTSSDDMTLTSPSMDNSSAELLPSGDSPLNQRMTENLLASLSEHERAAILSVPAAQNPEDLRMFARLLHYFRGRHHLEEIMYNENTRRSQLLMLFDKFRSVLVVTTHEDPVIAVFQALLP
Described as above.

As to DEPDC5 (from UniProt O75140 1-1603), the binding entry in experiment [1] was “binds”.

With “apoptosis-inducing factor (AIF) (from UniProt O95831 102-613)”, the binding result in experiment [2] and in experiment [1] was “binds” each time.
